Values of other authors, collected in patent US9045714B2, “Dihydrobenzofuran derivatives as fragrance and/or flavoring materials” (Symrise AG, priority 2012, dated 2015).

Conditions: commercial musk fragrances of the prior art; cited from earlier work

SMILES | odor description
CC(=O)c1cc2c(cc1C)C(C)(C)C(C)C2(C)C (stereo not drawn) [Phantolide®] | musky
CC(=O)c1cc2c(cc1C)C(C)(C)[C@H](C)[C@H]2C(C)C [Traseolide®] | woody, musky
CC(=O)c1cc(C(C)(C)C)cc2c1CCC2(C)C [Celestolide®] | strong musk note
